Measurements reported in patent US9861099B2, “Composition for enhancing plant disease control effect of monosaccharide” (MITSUI CHEMICALS AGRO, INC., priority 2013, dated 2018).

Test system: Pseudoperonospora cubensis
Experiment: Cucumber downy mildew (CDM) control test
Assay type: in vivo
Settings: Table 8: D-tagatose liquid preparation with assistant (5 parts), 10-fold dilution (D-tagatose 0.5%+assistant 0.5%); improvement vs D-tagatose only

Structure (SMILES): NCCC[C@H](N)C(=O)O [L-ornithine]
- Evaluation Score CDM: 3 (Improvement in preventive value of 20 to less than 30)
